Results: the supplement of paper PMC12282887
Values are raw readings; no control value is given beside them.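 Maximum concentrations were near the MIC for antimicrobials, 500 µM for most other compounds, and as high as 1 mM for known inducer-like compounds. Deletion strains began with a tenfold smaller inoculum, and wells with growth under 10% of the overall median counted as non-growing.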

System: Escherichia coli BW25113
Test: growth (OD600 area under curve, 8 h) (OD600 x h); higher = more growth
Procedure: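 E. coli BW25113 reporter strains (wild type, ΔmarA, ΔsoxS, Δrob, each carrying one of 8 lux reporter plasmids) were grown in 40 µl LB in 384-well plates at 37°C, 800 rpm, with each compound at 4 two-fold concentrations, in biological duplicates. Growth is the baseline-corrected OD600 area under the curve over 8 h (0-8 h WT, 1-9 h deletion strains).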

N[C@@H](C(=O)N[C@@H]1C(=O)N2C(C(=O)O)=C(Cl)CS[C@H]12)c1ccccc1 [Cefaclor]
growth
Conditions | reporter plasmid: EVC | reporter plasmid: acrABp | reporter plasmid: marRABp | reporter plasmid: micFp | reporter plasmid: ompFp | reporter plasmid: robp | reporter plasmid: soxSp | reporter plasmid: tolCp
0.11 µg/ml, genetic background: wild type | 2.69 | 3.34 | 3.38 | 3.04 | 3.15 | 3.23 | 2.95 | 3.027
0.11 µg/ml, genetic background: ΔmarA | 3.21 | 3.88 | 3.76 | 3.11 | 3.55 | 3.77 | 2.91 | 3.05
0.11 µg/ml, genetic background: Δrob | 3.16 | 3.27 | 3.54 | 3 | 2.68 | 2.94 | 2.8 | 3.03
0.11 µg/ml, genetic background: ΔsoxS | 3.184 | 3.15 | 3.06 | 2.94 | 3.28 | 3.32 | 3.24 | 3.011
0.23 µg/ml, genetic background: wild type | 2.79 | 3.1 | 3.37 | 3.14 | 3.213 | 3.32 | 2.83 | 3.12
0.23 µg/ml, genetic background: ΔmarA | 3.17 | 3.95 | 3.79 | 3.11 | 3.43 | 3.87 | 2.81 | 2.95
0.23 µg/ml, genetic background: Δrob | 3.1 | 3.09 | 3.4 | 3.06 | 2.52 | 2.9 | 2.73 | 3.211
0.23 µg/ml, genetic background: ΔsoxS | 3.29 | 3.24 | 3.4 | 3.02 | 3.44 | 3.25 | 3.26 | 3.23
0.46 µg/ml, genetic background: wild type | 2.74 | 3.64 | 3.34 | 2.98 | 3.28 | 3.23 | 2.84 | 3
0.46 µg/ml, genetic background: ΔmarA | 2.96 | 3.78 | 2.13 | 3.01 | 3.34 | 3.67 | 2.92 | 1.94
0.46 µg/ml, genetic background: Δrob | 2.78 | 2.6 | 2.98 | 2.36 | 1.85 | 2.35 | 2.54 | 2.72
0.46 µg/ml, genetic background: ΔsoxS | 3.24 | 3.15 | 3.38 | 2.85 | 3.32 | 3.019 | 3.05 | 2.94
0.92 µg/ml, genetic background: wild type | -0.225 | -0.0218 | 0.0579 | -0.0127 | -0.0623 | 0.0599 | 0.099 | 0.139
0.92 µg/ml, genetic background: ΔmarA | -0.0168 | -0.00749 | 0.00416 | -0.00444 | -0.0365 | -0.028 | 0.00139 | -0.0548
0.92 µg/ml, genetic background: Δrob | 0.0876 | -0.0122 | 0.00608 | -0.0977 | -0.0607 | -0.0151 | -0.0164 | 0.0553
0.92 µg/ml, genetic background: ΔsoxS | 0.0437 | 0.0343 | 0.0313 | 0.0248 | 0.0456 | 0.033 | 0.00873 | 0.0555

Cc1cc(NS(=O)(=O)c2ccc(N)cc2)no1 [Sulfamethoxazole]
growth
Conditions | reporter plasmid: EVC | reporter plasmid: acrABp | reporter plasmid: marRABp | reporter plasmid: micFp | reporter plasmid: ompFp | reporter plasmid: robp | reporter plasmid: soxSp | reporter plasmid: tolCp
3.2 µg/ml, genetic background: wild type | 2.9 | 3.21 | 2.96 | 3.13 | 2.64 | 2.66 | 2.82 | 2.76
3.2 µg/ml, genetic background: ΔmarA | 3.13 | 3.773 | 3.5 | 3.3 | 3.18 | 3.45 | 3.07 | 2.98
3.2 µg/ml, genetic background: Δrob | 3.19 | 3.41 | 3.3 | 3.063 | 2.41 | 2.83 | 2.89 | 3.15
3.2 µg/ml, genetic background: ΔsoxS | 3.19 | 3.56 | 3.25 | 2.83 | 2.84 | 3.1 | 3.22 | 3.18
6.3 µg/ml, genetic background: wild type | 2.91 | 3.33 | 3.09 | 2.98 | 2.77 | 2.82 | 2.79 | 2.785
6.3 µg/ml, genetic background: ΔmarA | 3.38 | 4.17 | 3.66 | 3.31 | 3.27 | 3.76 | 2.87 | 3.13
6.3 µg/ml, genetic background: Δrob | 3.03 | 3.449 | 3.31 | 3.04 | 2.67 | 2.86 | 2.75 | 3.002
6.3 µg/ml, genetic background: ΔsoxS | 3.1 | 3.35 | 3.36 | 2.79 | 2.83 | 3.33 | 3.09 | 3.1
12.7 µg/ml, genetic background: wild type | 2.91 | 3.15 | 3.15 | 2.95 | 2.64 | 2.87 | 3.02 | 2.99
12.7 µg/ml, genetic background: ΔmarA | 3.29 | 4.27 | 3.52 | 3.31 | 3.07 | 3.58 | 3.09 | 2.99
12.7 µg/ml, genetic background: Δrob | 3.01 | 3.07 | 3.26 | 3.01 | 2.26 | 2.56 | 2.86 | 3.208
12.7 µg/ml, genetic background: ΔsoxS | 3.2 | 3.26 | 3.07 | 2.77 | 2.69 | 3.03 | 2.88 | 3.29
25.3 µg/ml, genetic background: wild type | 2.75 | 2.95 | 2.81 | 2.6 | 2.26 | 2.529 | 2.63 | 2.8
25.3 µg/ml, genetic background: ΔmarA | 2.8 | 3.3 | 2.72 | 2.72 | 2.15 | 3.27 | 2.33 | 2.54
25.3 µg/ml, genetic background: Δrob | 2.81 | 1.92 | 2.55 | 2.56 | 1.54 | 1.94 | 2.29 | 2.902
25.3 µg/ml, genetic background: ΔsoxS | 3.011 | 2.31 | 2.32 | 2.14 | 1.77 | 2.1 | 2.36 | 3.01
